Experimental data as given in PubChem BioAssay AID540256 (National Center for Advancing Translational Sciences (NCATS), 2011).
The campaign covered roughly 300,000 compounds. About 3,700 (1.2%) were called active. Inconclusive means that the source gave no clear call. Such entries were picked first, then a sample of the others. Calls follow the shape of the full dose curve; tested in HEK293 cells. Where the call is inconclusive, the potency comes from a doubtful curve fit.

Assay: qHTS for Inhibitors of binding or entry into cells for Lassa Virus; also: nearly all actives have a fitted effect of over 50% in size
Details: Lassa virus pseudotype entry inhibition, cell reporter; activity change, negative = inhibition: at 37.9 µM (top of the series) unless noted
% is scaled to controls: 0 for no effect and ±100 for the full control effect; potency is read from the fitted curve at half-maximal effect.

SMILES	Potency	activity change, negative = inhibition
FC(F)(F)c1ccc(CN2CCNCC2)cc1	inactive	–
Oc1ccc2ccccc2c1C=Nc1cc(C(F)(F)F)ccc1N1CCCC1	inactive	–
CCN1CCN(c2cc3c(cc2F)c(=O)c(S(=O)(=O)c2cc(C)cc(C)c2)cn3CC)CC1	inactive	–
COc1ccc(-n2cc(-c3ccccc3)c3c(NCCc4ccc(OC)c(OC)c4)ncnc32)cc1	inconclusive: 7.94 µM [inhibitor, partial curve, poor fit]	–
CC(C)(C)C(=O)/C(=C/c1cccc([N+](=O)[O-])c1)n1cncn1	active: 7.31 µM	–
Cc1nc2ccccc2c(=O)n1-c1cccc(NC(=O)c2cccs2)c1	inconclusive: 10 µM [inhibitor, partial curve, poor fit]	–
CCOC(=O)c1ccc(NC(=O)c2c(NCc3cc(OC)c(OC)cc3OC)sc3c2CCCC3)cc1	inactive	–
CC1C/C(=C\c2cccnc2)C(=O)/C(=C/c2cccnc2)C1 (configuration not stated)	active: 2.91 µM	–
CCOC(=O)C1CCCN(C(=O)CNC(=O)c2nn(-c3ccc(OC)c(Cl)c3)c(=O)c3ccccc23)C1 (configuration not stated)	inconclusive: 35.5 µM [inhibitor, single point]	–
Cc1cccc(NC(=O)c2ccccc2[N+](=O)[O-])n1	inconclusive: 7.08 µM [activator, partial curve]	–
Cn1c(=O)c(NC(=O)c2ccccc2)c2n(c1=S)CCCCC2	inconclusive: 0.259 µM [inhibitor, single point]	–
CCOC(=O)c1cnc(N)nc1C(F)(F)F	inconclusive: 0.398 µM [inhibitor, single point]	–
CCNC(=O)CN1C(=O)NC2(CCOc3ccccc32)C1=O (configuration not stated)	inactive	–
Cc1ccc(S(=O)(=O)NCc2ccccc2)cc1C(=O)N1CCCC(C(F)(F)F)C1 (configuration not stated)	inactive	–
CCOc1ccc(NC(=S)N2CCC(C(=O)c3ccc(F)cc3)CC2)cc1	inconclusive: 35.5 µM [inhibitor, single point]	–
Cc1ccccc1OCC(=O)NCCNC(=O)c1ccncc1	inconclusive: 0.562 µM [inhibitor, full curve, poor fit]	–
CCCCOc1ccc(C(O)(CCC)CCN2CCOCC2)cc1 (configuration not stated)	inconclusive: 32.6 µM [inhibitor, single point]	–
NC(=O)N/N=C/c1ccccc1OC(=O)c1ccccc1Br	inconclusive: 22.4 µM [inhibitor, single point]	–
Clc1ccc(-c2cc(CSc3ccccc3)on2)cc1	inconclusive: 35.5 µM [inhibitor, single point]	–
CCOC(=O)c1c(NC(=O)CSc2nnnn2-c2ccc3c(c2)OCCO3)sc(C)c1C	inconclusive: 23.1 µM [inhibitor, partial curve, poor fit]	–
O=C(N=Nc1c(O)n(Cc2ccccc2)c2ccccc12)c1ccc(O)cc1	inconclusive: 35.5 µM [inhibitor, single point]	–
Cc1sc2nc(CN3CCCC3)nc(N3CCC(C(N)=O)CC3)c2c1C	inconclusive: 14.1 µM [activator, single point]	–
CCCCCCn1c(=O)c(C(=O)Nc2nc(CC(=O)OCC)cs2)c(O)c2ccccc21	inconclusive: 1.41 µM [inhibitor, partial curve, poor fit]	–

SMILES	Potency	activity change, negative = inhibition
Cc1cccc(N2CCN(c3ncnc4onc(C)c34)CC2C)c1 (configuration not stated)	inconclusive: 12.6 µM [inhibitor, single point]	–
Cc1ccccc1-c1ccccc1CN1[C@@H](C(C)C)COCCS1(=O)=O	inactive	–
Cc1sc2nc(-c3ccccn3)[nH]c(=O)c2c1-c1ccccc1	inconclusive: 35.5 µM [inhibitor, single point]	–
Cc1ccc(NC(=O)/C(=C/c2cccc(Br)c2)NC(=O)c2ccco2)cc1	inconclusive: 3.16 µM [inhibitor, partial curve, poor fit]	–
COc1ccc(CCNC(=O)[C@H](CC(C)C)NC(=O)N2CCn3c2nc2ccccc23)cc1OC	inconclusive: 35.5 µM [inhibitor, single point]	–
N=c1c(S(=O)(=O)c2ccccc2)cc2c(=O)n3ccccc3nc2n1C1CCCCC1	inconclusive: 22.4 µM [inhibitor, single point]	–
Cc1cccc(-n2ncc3c(NCc4cccs4)ncnc32)c1	inconclusive: 29.1 µM [inhibitor, single point]	–
CCOc1ccc(NC(=O)CC2C(=O)N(c3ccc(C)cc3)C(=O)N2Cc2ccc(OC)cc2)cc1 (configuration not stated)	inconclusive: 8.91 µM [inhibitor, partial curve, poor fit]	–
CC1CCCCN1CCNC(=O)c1ccc2c(c1)N(Cc1ccccc1)C(=O)c1ccccc1S2(=O)=O (configuration not stated)	inconclusive: 2.24 µM [inhibitor, single point]	–
COc1ccc(CNC(=O)C/C(C)=N/NC(=O)COc2cccc(C)c2)cc1	inactive	–
COC(=O)C1=C(C)N(Cc2ccc(OC)c(OC)c2)C(=O)C1	inactive	–
COc1cccc(COC(=O)Nc2ccccc2F)c1	inconclusive: 22.4 µM [inhibitor, single point]	–
CC(=O)OC1CCC2(C)C(CCC3C2CC(=O)C2(C)C3CC(N3CC3)C2C(C)=O)C1 (configuration not stated)	inactive	–
COc1cc(Cl)ccc1NC(=S)N(CCCN1CCOCC1)Cc1cn(C)c2ccccc12	inconclusive: 15.8 µM [inhibitor, single point]	–
O=C(CNC(=O)c1ccc(F)cc1)c1ccc(Cl)cc1	inconclusive: 11.2 µM [inhibitor, partial curve, poor fit]	–
O=C(NCCc1ccccc1)c1ccc(NCC2CCCO2)c([N+](=O)[O-])c1 (configuration not stated)	inconclusive: 25.1 µM [inhibitor, single point]	–
Cc1ccc(NC(=O)CSc2nc(C)c(C)c(C)n2)c([N+](=O)[O-])c1	inactive	–
COc1cc2c(cc1Nc1nc(Nc3ccsc3C(N)=O)c3cc[nH]c3n1)N(C(=O)CN(C)C)CCC2	active: 0.0705 µM	–
COc1cccc(C2=NOC(C(=O)NCc3cccs3)C2)c1 (configuration not stated)	inactive	–
CCOc1ccc(NS(=O)(=O)c2ccc(OC)c(NC(=O)c3ccc4c(c3)OCCO4)c2)cc1	inconclusive: 7.94 µM [inhibitor, partial curve]	–
COCCCn1c(SCC(=O)Nc2ccc(NC(=O)c3ccco3)c(OC)c2)nc2ccccc2c1=O	inactive	–
CN(C)CCN(C(=O)C1CCN(S(=O)(=O)c2cccs2)CC1)c1nc2ccccc2s1	inconclusive: 11.2 µM [activator, partial curve, poor fit]	–
C=CCNc1nc(N)c(C(=C(C#N)C#N)c2ccc(Br)cc2)s1	inconclusive: 25.1 µM [inhibitor, single point]	–

Some of the entries above, reformatted.
SMILES,Potency,"activity change, negative = inhibition"
COc1ccc(CCNC(=O)[C@H](CC(C)C)NC(=O)N2CCn3c2nc2ccccc23)cc1OC,"inconclusive: 35.5 µM [inhibitor, single point]",–
N=c1c(S(=O)(=O)c2ccccc2)cc2c(=O)n3ccccc3nc2n1C1CCCCC1,"inconclusive: 22.4 µM [inhibitor, single point]",–
Cc1cccc(-n2ncc3c(NCc4cccs4)ncnc32)c1,"inconclusive: 29.1 µM [inhibitor, single point]",–

(next part)

SMILES	Potency	activity change, negative = inhibition
CSc1nc2ccc(NC(=O)c3c(-c4ccccc4)noc3C)cc2s1	inconclusive: 5.01 µM [activator, single point]	–
Cn1c(N)c(C(=O)Nc2c(Cl)cccc2Cl)sc1=S	inconclusive: 1.26 µM [inhibitor, full curve, poor fit]	–
O=C(NC1CCCCC1)C(c1ccc(O)cc1)N(C(=O)c1cnccn1)c1cccc(F)c1 (configuration not stated)	inconclusive: 7.94 µM [inhibitor, partial curve, poor fit]	–
CC1CCN(c2ccccc2NC(=O)c2ccc(N3CCOCC3)c([N+](=O)[O-])c2)CC1	inconclusive: 18.3 µM [inhibitor, partial curve]	–
Cc1cccc(-c2nc3ccccc3n3c(-c4ccccc4)c4c(=O)n(C)c(=O)n(C)c4c23)c1	–	inconclusive: 29% [activator] [at 46.1 µM]
CCCN(CCC)CCNC(=O)C1CCN(c2nc3ccc(CC)cc3s2)CC1	inconclusive: 15.8 µM [inhibitor, single point]	–
CCOC(=O)c1cnc2ccc(Cl)cc2c1Nc1ccc(N2CCOCC2)cc1	inconclusive: 35.5 µM [activator, single point]	–
CNC(=O)Oc1ccc2ncccc2c1	inactive	–
CC(C)(C)c1nc(CN2CCOCC2)ccc1O	inactive	–
O=C(c1ccccc1)c1ccc(CN2C(=O)c3ccccc3C2=O)o1	inactive	–
CC(C)(C)OC(=O)N1CCC(c2c(C(=O)N3CCOCC3)cnn2-c2cccc(F)c2)CC1	inconclusive: 5.01 µM [inhibitor, single point]	–
Clc1cccc(OCCN2CCN(CCOc3cccc(Cl)c3)CC2)c1	inconclusive: 29.1 µM [inhibitor, single point]	–
Cc1ccccc1CN(c1ccc(C(=O)NCCC2=CCCCC2)cc1)S(C)(=O)=O	active: 16.4 µM	–
O=C(CCc1nnc2ccc(NCc3ccccc3)nn12)NC1CCCCC1	inactive	–
O=C(Nc1nc(-c2ccccc2)cs1)Nc1ccc(F)cc1F	inconclusive: 14.1 µM [inhibitor, partial curve, poor fit]	–
CCc1ccc(NC(=O)Cn2cnc3sc(C)c(S(=O)(=O)N4CCN(c5ccccc5OC)CC4)c3c2=O)cc1	inactive	–
O=C(C=NNc1ccccc1)c1ccccc1	inconclusive: 35.5 µM [inhibitor, partial curve, poor fit]	–
CNC(=O)c1c(NC(NC(=O)c2ccco2)C(=O)c2ccc(Cl)cc2)sc2c1CCCC2 (configuration not stated)	inconclusive: 32.6 µM [inhibitor, partial curve, poor fit]	–
Cc1ccc(Nc2nc3nonc3[nH]c2=O)cc1Cl	inconclusive: 35.5 µM [inhibitor, single point]	–
COc1ccc(CC(=O)NNC(=O)c2c(-c3ccccc3Cl)noc2C)cc1OC	inconclusive: 3.16 µM [inhibitor, full curve, poor fit]	–
O=[N+]([O-])c1cc(CN2CCN(c3ccccc3)CC2)c(O)c2ncccc12	inconclusive: 4.47 µM [inhibitor, full curve, poor fit]	–
